These are yes or no findings as the source states them, for the method shown.
B1: SPEN_(RRM 1–4) (domain or fragment)
chain: MVRETRHLWVGNLPENVREEKIIEHFKRYGRVESVKILPKRGSEGGVAAFVDFVDIKSAQKAHNSVNKMGDRDLRTDYNEPGTIPSAARGLDDTVSIASRSREVSGFRGGGGGPAYGPPPSLHAREGRYERRLDGSDSSSSSSDDSPARSVQSAAVPAPTSQLLSSLEKDEPRKSFGIKVQNLPVRSTDTSLKDGLFHEFKKFGKVTSVQIHGTSEERYGLVFFRQQEDQEKALTASKGKLFFGMQIEVTAWIGPETESENEFRPLDERIDEFHPKATRTLFIGNLEKTTTYHDLRNIFQRFGEIVDIDIKKVNGVPQYAFLQYCDIASVCKAIKKMDGEYLGNNRLKLGFGKSMPTNCVWLDGLSSNVSDQYLTRHFCRYGPVVKVVFDRLKGMALVLYNEIEYAQAAVKETKGRKIGGNKIKVDFANRESQLAFYHCMEKSGQDIRDFYEMLAERREER
B2: SPEN_(RRM 2–4) (domain or fragment)
chain: FGIKVQNLPVRSTDTSLKDGLFHEFKKFGKVTSVQIHGTSEERYGLVFFRQQEDQEKALTASKGKLFFGMQIEVTAWIGPETESENEFRPLDERIDEFHPKATRTLFIGNLEKTTTYHDLRNIFQRFGEIVDIDIKKVNGVPQYAFLQYCDIASVCKAIKKMDGEYLGNNRLKLGFGKSMPTNCVWLDGLSSNVSDQYLTRHFCRYGPVVKVVFDRLKGMALVLYNEIEYAQAAVKETKGRKIGGNKIKVDFANRESQLAFYHCMEKSGQDIRDFYEMLAERREER

Legend:
SPEN_(RRM 1–4) (human) = experiment: SEC; gel filtration as last purification step, HiLoad 16/600 Superdex 200 pg, 50 mM HEPES (pH 7.5), 300 mM NaCl, 5 mM β-mercaptoethanol, 0.1% Triton-X; both purified
SPEN_(RRM 2–4) (human) = experiment: as above

Binder	binding (SPEN_(RRM 1–4) (human))	binding (SPEN_(RRM 2–4) (human))
B1	no binding	
B2		no binding

Reference: PMC10870365, “Dissection of protein and RNA regions required for SPEN binding to XIST A-repeat RNA”
